Values quoted from earlier work, collected in patent US7625410B2, “Stent device and method” (Boston Scientific Scimed, Inc., priority 2001, dated 2009).
At least one structure is not confirmed: it was looked up by name or label, or the drawing left a doubt.

Columns and labels:
[1] = test system: human smooth muscle cells

## C[C@H]1C[C@@H]2[C@H]([C@@H](O)C[C@@]3(C)[C@H]2CC[C@]3(O)C(=O)CO)[C@@]2(C)C=CC(=O)C=C12 [methylprednisolone]
Rat smooth muscle cells
  inhibition of proliferation: gradual inhibition over a broad concentration interval
[1]
  inhibition of proliferation: gradual inhibition over a broad concentration interval
Human endothelial cells
  inhibition of proliferation: not of human endothelial cells
